# Laboratory results: PubChem BioAssay AID588525 (Broad Institute, 2011)
# This list was built around the results that the source calls inconclusive (neither active nor inactive); the mix of calls is not that of the screen. The source made the active and inactive calls. How the calls were made is not given here.
# Biological target: DNA topoisomerase I (Yersinia pestis CO92) (UniProt A0A2S9PM60)
# Assay: Y. pestis Topo-I inhibitors, cleavage product readout, dose response, biochemical, Y. pestis CO92, cherry-pick (AID 588525)
# Conditions: purified Y. pestis Topo-I, plate reader; at 38 µM (top of the series) unless noted
row,SMILES,activity (cleavage complex accumulation)
1,Cc1ccc(C(=O)C(C)OC(=O)C2CCN(c3ccc(C(F)(F)F)cn3)CC2)cc1 (centres undefined),inconclusive: 15.5%
2,O=C(O)c1nn(CCOc2cccc(Br)c2)c(=O)c2ccccc12,inconclusive: -12.4%
3,CCOC(=O)c1c(NC(=O)CCc2ccc(CC)o2)sc(C)c1C,inconclusive: 37.7%
4,O=C1NC(Cc2ccccc2)c2nc3ccc(F)cc3c(=O)n2-c2cc3ccccc3cc21 (centres undefined),inconclusive: 205%
5,COc1ccccc1N(CC(=O)NCCSc1ccccc1)S(=O)(=O)c1ccccc1,inconclusive: 3.39%
6,Cc1ccc(S(=O)(=O)N2CCC(C(=O)NCCC3=CCCCC3)CC2)cc1C,inconclusive: 16%
7,CCCCCCCNC(=O)C1(CC2CC(c3cccc(Br)c3)=NO2)CCN(C(=O)C2CCCC2)CC1 (centres undefined),inconclusive: 15.2%
8,CC(C)(C)OC(=O)NCc1ccc(NC(=O)c2nc[nH]c2C(=O)NCCCNC(=O)c2[nH]cnc2C(=O)Nc2ccc(CNC(=O)OC(C)(C)C)cc2)cc1,inconclusive: 441%
9,O=C(CCSCc1ccc(Cl)cc1)NCCC1=CCCCC1,inconclusive: 27.7%
10,O=C(COc1ccc2cc(Br)ccc2c1Br)N1CCOCC1,inconclusive: -8.4%
11,CN(Cc1c(F)cccc1Cl)C(=O)c1ccc(COc2ccccc2)cc1,inconclusive: -13.8%
12,CCCCC(CC)COC(=O)c1ccccc1C(=O)OCC(CC)CCCC (centres undefined),inactive: 20.7%
13,O=C(c1cc(COc2c(F)cccc2F)on1)N(Cc1ccccc1)CC1CC1,inconclusive: 9.98%
14,Clc1ccc(COC(Cn2ccnc2)c2ccc(Cl)cc2Cl)cc1 (centres undefined),inconclusive: -11.7%
